# From PubChem BioAssay AID2685 (National Center for Advancing Translational Sciences (NCATS), 2010)
# About 2,100 (0.66%) of roughly 320,000 compounds were called active. The inconclusive results got no clear call from the source; some entries with a clear call stand among them for comparison. Calls follow the shape of the dose curve; as a rule, active = well fitted inhibition curve with a large enough effect in the signal ratio, with a control signal flat (not every such curve was filed as active); inconclusive = small, poorly fitted or top-dose-only effect, or effect the other way, or a change in a side signal; inactive = flat fitted curve, though single readings scatter; the % refers to the signal ratio. A potency beside an inconclusive call is a rough fit, not a confirmed value.
# Assay: qHTS Assay for Lipid Storage Modulators in Drosophila S3 Cells
# Conditions: BODIPY lipid droplet fluorescence, 18-24 h, cells fed with added oleic acid; lipid storage change, negative = inhibition: at 46.1 µM (top of the series) unless noted
# Procedure, shortened: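 Laser-scanning cytometry quantifies lipid droplet accumulation (500–530 nm total intensity; droplet/cell object ratio) in oleic acid-fed (400 uM added) Drosophila S3 cells treated with a concentration series. 20 uM Triacsin C defined 100% inhibition.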
# % is scaled to controls: 0 for no effect and ±100 for the full control effect; potency is read from the fitted curve at half-maximal effect.
SMILES,Potency,"lipid storage change, negative = inhibition"
O=C(COc1ccc(S(=O)(=O)N2CCCCC2)cc1)NCc1ccncc1,"inconclusive: 16.4 µM [activator, single point]",
CNC(=O)NNC(=O)c1onc(-c2c(Cl)cccc2Cl)c1C(=O)OC,,inactive
Cc1ccccc1NC(=O)Cn1c(O)c(N=NC(=O)c2ccccc2O)c2ccccc21,,inconclusive: 35.1%
Cc1ccc(-n2nc(C)c3c2NC2=C(C(=O)CC(C)(C)C2)C3c2ccccc2OCC(=O)O)cc1 (stereo not given),,inconclusive: -17.8%
Cc1nc2sccn2c(=O)c1S(=O)(=O)NCCc1ccccc1,,inconclusive: 34.4%
CNC(=O)/C(C#N)=C/c1c(N2CCCCCC2)nc2ccccn2c1=O,,inactive
O=P(OCC1CC1)(c1ccccc1)c1ccccc1,,inconclusive: 7.18%
O=C(/C=C/c1ccccc1[N+](=O)[O-])N1CCN(c2ccccc2F)CC1,"inconclusive: 29.1 µM [falling, single point]",
CCn1c(SCC(=O)N(C)CC(=O)Nc2cccc(OC)c2)nnc1-c1ccco1,,inconclusive
COC(=O)Nc1ccc(S(=O)(=O)N2CCCC(C(=O)N3CCCCC3)C2)cc1 (stereo not given),,inconclusive: 5.43%
Cc1c(N=Cc2cccs2)c(=O)n(-c2ccccc2)n1C,,inconclusive: 50.9%
O=C(NC1CC(=O)N(c2ccc(F)cc2)C1)C(=O)c1c[nH]c2ccccc12 (stereo not given),"inconclusive: 7.31 µM [rising, partial curve]",
CCOC(=O)C1C(c2ccc(O)c(OCC)c2)NC(=S)NC1(O)C(F)(F)F (stereo not given),"inconclusive: 25.9 µM [activator, single point]",
Cc1ccc(CNC(=O)C2CC(c3ccc(C(F)(F)F)cc3)=NO2)o1 (stereo not given),,inconclusive: -13%
COc1cc(OC)cc(C(=O)NCC(=O)OCC(=O)/C=C2/N(C)c3ccccc3C2(C)C)c1,"inconclusive: 29.1 µM [cytotoxic, single point]",
Cc1ccc2nc(-c3ccc(NS(=O)(=O)c4ccc(F)cc4)cc3)sc2c1,"inconclusive: 29.1 µM [cytotoxic, partial curve, poor fit]",
O=C1[C@H]2[C@@H](c3ccc(Cl)cc3)N3C(=O)N(c4cccc(F)c4)C(=O)[C@@]3(Cc3ccccc3)[C@H]2C(=O)N1C1CCCCC1,,inconclusive: -59.9%
CNC(=S)Nc1ccc(Br)cc1,,inconclusive: -8.09%
Cn1nc(C(F)(F)F)c(-c2cccc(C(F)(F)F)c2)c1NC(=O)c1cccnc1,,inconclusive: 4.67%
CC(=O)Nc1cc(C(=O)OCC(=O)c2ccccc2)ccc1C,,inconclusive: -1.18%
O=C(Nc1ccccc1)Nc1nnc(Cc2ccccc2F)s1,"inconclusive: 4.11 µM [falling, full curve, poor fit]",
O=C(Nc1ccc(C2CC2(Cl)Cl)cc1)c1ccccc1Br (stereo not given),,inactive
Cc1nc(C(=O)N(C)C)nn1-c1cc(Cl)cc(Cl)c1,,inconclusive: 36.7%
CC1=C(C(=O)N2CCOCC2)C(c2cc(C)ccc2C)NC(=S)N1 (stereo not given),,inconclusive: 0.419%
N=C1C(c2nc3ccccc3s2)=C(O)CN1Cc1ccco1,"inconclusive: 4.11 µM [activator, single point]",

# Record cards (already shown).
# Cc1c(N=Cc2cccs2)c(=O)n(-c2ccccc2)n1C is listed with lipid storage change, negative = inhibition: inconclusive: 50.9%
# CNC(=S)Nc1ccc(Br)cc1 is listed with lipid storage change, negative = inhibition: inconclusive: -8.09%

# (listing goes on)

SMILES,Potency,"lipid storage change, negative = inhibition"
O=C(Nc1cccnc1)c1ccc(Cl)c(S(=O)(=O)N2CCOCC2)c1,,inconclusive: -100%
COCN(C#N)c1nc(OC)nc(OC)n1,,inconclusive: -0.797%
Cc1cc(OCC(=O)NNC(=S)NC(=O)c2cccs2)ccc1Cl,,inconclusive: -27%
CCCc1n(CC(O)COCc2ccccc2)c2ccccc2[n+]1C (stereo not given),,inconclusive: 57.7%
CN(C)c1nc(-c2ccccc2)c2cnn(Cc3ccccc3)c2n1,,inconclusive: 19.3% [at 9.22 µM]
Cc1cc(C)c(NC(=O)CCCN2CCOCC2)c(C)c1,"inconclusive: 20.6 µM [activator, single point]",
Cc1nc2c(C)cccn2c(=O)c1NC(=O)c1cccc2ccccc12,,inconclusive: 42.1%
Cc1ccc(S(=O)(=O)CC(=O)Nc2cc(C)on2)cc1,,inconclusive: -46.9%
Nc1ccn(Cc2cccc(Cl)c2)n1,,inconclusive: 10.4%
COCCCNC(=O)CCN1N=C(c2ccccc2)CCC1=O,,inconclusive: -18.7%
CN(CC(=O)Nc1ccc(F)c(Cl)c1)S(=O)(=O)c1ccc2c(c1)n(C)c(=O)c(=O)n2C,,inconclusive: -5.88%
CC(=O)N1CCc2c(sc(NC(=O)C3CCCCC3)c2C(N)=O)C1,,inconclusive: -55%
Cc1ccc(S(=O)(=O)NN2C(=O)c3ccccc3NC2(C)C)cc1,,inconclusive: 8.85%
COc1ccc(/C=C2\CCOC2=O)cc1,"inconclusive: 6.51 µM [cytotoxic, single point]",
NC(=O)C1CCN(CC(=O)Nc2ccccc2N2CCOCC2)CC1,"inconclusive: 0.0052 µM [falling, full curve, poor fit]",
NC(=O)C1CCN(S(=O)(=O)c2cccc(C(=O)O)c2)CC1,"inconclusive: 29.1 µM [falling, single point]",
Cc1ccc2c(c1)c1c3n2CCCNC3CCC1 (stereo not given),,inconclusive: -36.1%
Cc1cc(C2=NNC(=NC3CC3)SC2)c(C)n1-c1ccccc1F,,inconclusive: -4.7%
C=CCNc1nc2c(c(=O)[nH]c(=O)n2C)n1CCOc1ccccc1,,inconclusive: -2.89%
COc1ccc(S(=O)(=O)Nc2cc3c4c(c2)CCC(=O)N4CCC3)cc1,,inconclusive: 38.1% [at 0.0737 µM]
CCC(C)Oc1cccc(C(=O)Nc2ccccc2N2CCOCC2)c1 (stereo not given),"inconclusive: 32.6 µM [falling, single point]",
COc1cc(C#N)ccc1OC(=O)Cc1cc(OC)c(OC)c(OC)c1,"inconclusive: 29.1 µM [falling, single point]",
CCC(O)CNC(=O)CCc1nnc(C2(c3ccc(Cl)cc3)CCC2)o1 (stereo not given),"inconclusive: 0.731 µM [falling, full curve]",
Cc1cc(C)cc(OCc2nnc(SCC(=O)NC3CC3)n2C)c1,,inconclusive: -29.1%
Cc1cc(OCc2ccc(F)cc2)nc(-c2ccccc2O)n1,"inconclusive: 6.51 µM [rising, single point]",
